Reference: PubChem BioAssay AID743454 (Peter MacCallum Cancer Centre, 2014)

Assay: 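Genes whose loss kills vorinostat-resistant colon cancer cells under vorinostat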 (primary screen)
Cells: human HCT116-VR colon cancer cells, selected for vorinostat resistance
Reagent: siRNA pool against human genes, 40 nM siRNA pool
Time to read-out: vorinostat for 24 h, read-out about 72 h after transfection
Challenge: vorinostat at 2.5 µM final
Measured: 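Cell viability by CellTiter-Fluor and caspase 3/7 activity by luminescence, each scaled to mock wells per plate, duplicates averaged, then robust z-scored over all plates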
Scale: viability robust z-score: higher = more viable cells than screen typical; caspase robust z-score: higher = more caspase 3/7 activity than screen typical
Call rule: 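Hits are knock-downs in viability class RV1/RV2 or caspase class CA1/CA2, excluding ones that killed cells in the no-drug cell-count arm; hits then retested with single siRNAs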
The deposit covers about 18,000 reagents; this is a random part of them. In the full data, 450 (2.5%) are marked active. 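Single biological run; no consistent viability z cut-off exists, so the class columns, not z-scores, define the calls.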 Entries without a mark were called inactive.

viability hit class,caspase hit class,viability robust z-score,caspase robust z-score,gene symbol,PubChem SID
no change (active),CA1 (caspase activation),1.84,5.45,TAC4 (tachykinin precursor 4),SID135623206
no change,no change,1.24,0.77,TRIM29 (tripartite motif containing 29),SID152154560
no change,no change,0.32,-0.16,FAM3B (FAM3 metabolism regulating signaling molecule B),SID134319505
no change,no change,-1.33,1.95,"NRDE2 (NRDE-2, necessary for RNA interference, domain containing)",SID134318002
no change,no change,0.8,-0.91,XAF1 (XIAP associated factor 1),SID134310409
no change,no change,-0.96,-0.04,GPBP1L1 (GC-rich promoter binding protein 1 like 1),SID134320453
no change,no change,0.26,-1.07,NXN (nucleoredoxin),SID152147176
no change,no change,-0.46,-0.19,GTSF1L (gametocyte specific factor 1 like),SID135623441
no change,no change,0.91,0.08,SLC26A6,SID152148350
no change,no change,-0.4,0.04,CORO2A (coronin 2A),SID134315760
no change,no change,0.87,-0.84,"HLA-DMA (major histocompatibility complex, class II, DM alpha)",SID152151399
no change,no change,-1.12,-0.51,DIRAS3 (DIRAS family GTPase 3),SID135621613
no change,no change,0.76,-0.86,CPA3 (carboxypeptidase A3),SID135621078
no change,no change,0.6,-0.38,MAP6 (microtubule associated protein 6),SID134326626
no change,no change,-1.9,-0.6,HSD11B2 (hydroxysteroid 11-beta dehydrogenase 2),SID152149769
no change,no change,0.28,-0.52,RGS4 (regulator of G protein signaling 4),SID152148559
no change,no change,0.68,-0.1,RBM44 (RNA binding motif protein 44),SID135625266
no change,no change,-1.49,1.33,SPZ1 (spermatogenic leucine zipper 1),SID134319865
no change,no change,-0.84,0.46,SKAP1 (src kinase associated phosphoprotein 1),SID152154182
no change,no change,0.94,-0.13,"RAB1B (RAB1B, member RAS oncogene family)",SID152147368
no change,no change,0.62,2.6,DCP2 (decapping mRNA 2),SID152156651
no change,no change,0.42,0.17,CHMP3 (charged multivesicular body protein 3),SID135620870
no change,no change,1.75,-0.7,GYPE (glycophorin E (MNS blood group)),SID135622175
no change,no change,0.16,-0.47,MAT1A (methionine adenosyltransferase 1A),SID152153961
no change,no change,0.71,-1.15,"HLA-DOA (major histocompatibility complex, class II, DO alpha)",SID135623747
no change,no change,0.78,-0.01,NRBF2 (nuclear receptor binding factor 2),SID135622790
no change,no change,-0.57,-0.47,HECA (HECA ribonucleoprotein granule regulator),SID135624132
no change,no change,0.64,-0.46,SLC9C1,SID152147774
no change,no change,0.68,-0.69,GPSM2 (G protein signaling modulator 2),SID134310267
no change,no change,-2.04,0.68,S100PBP (S100P binding protein),SID135622599
no change,no change,1.55,0.16,HSD17B1 (hydroxysteroid 17-beta dehydrogenase 1),SID152151812
no change,no change,0.81,-0.6,DSG3 (desmoglein 3),SID152152691
no change,no change,-0.72,0.6,CCDC93 (CCC complex scaffolding subunit CCDC93),SID152148988
no change,no change,-0.18,-0.96,RNF126 (ring finger protein 126),SID152154874
no change,no change,0.04,-0.48,LRP10 (LDL receptor related protein 10),SID152153787
no change,no change,-0.55,0.64,USP37 (ubiquitin specific peptidase 37),SID134311506
no change,no change,0.21,-1.12,ESRRG (estrogen related receptor gamma),SID134309856
no change,no change,0.24,0.76,ZNF813 (zinc finger protein 813),SID135624407
no change,no change,-0.82,-0.33,RPAP3 (RNA polymerase II associated protein 3),SID134318544
no change,no change,-0.43,-0.13,S1PR4 (sphingosine-1-phosphate receptor 4),SID135620998
no change,no change,0.49,1.23,GDPGP1 (GDP-D-glucose phosphorylase 1),SID152147872
no change,no change,0.29,-0.42,"PROZ (protein Z, vitamin K dependent plasma glycoprotein)",SID134314741
no change,no change,0.9,0.18,EGLN3 (egl-9 family hypoxia inducible factor 3),SID152151229
no change,no change,-0.31,2.48,GBP7 (guanylate binding protein 7),SID152152776
no change,no change,-0.36,0.67,SERTAD3 (SERTA domain containing 3),SID134317853
no change,no change,0.06,0.23,OR52E2 (olfactory receptor family 52 subfamily E member 2),SID135624604
no change,no change,-0.84,0.02,SLC38A12,SID135621352
no change,no change,-0.76,0.6,PPIP5K1 (diphosphoinositol pentakisphosphate kinase 1),SID134310632
no change,no change,0.22,-1.1,ABTB1 (ankyrin repeat and BTB domain containing 1),SID135622561
no change,no change,-0.32,-0.04,GALK2 (galactokinase 2),SID56479099
no change,no change,0.54,3.7,KCNN1 (potassium calcium-activated channel subfamily N member 1),SID134311686
no change,no change,-0.19,-0.32,ZCWPW2 (zinc finger CW-type and PWWP domain containing 2),SID152156663
no change,no change,0.15,0.34,SPOPL (speckle type BTB/POZ protein like),SID134327225
no change,no change,-0.14,0.23,MYT1 (myelin transcription factor 1),SID134310841
no change,no change,1.82,0.05,ZNF706 (zinc finger protein 706),SID152151073
no change,no change,-1.41,-0.66,PPP1R12B (protein phosphatase 1 regulatory subunit 12B),SID135622553
no change,no change,0.06,-0.24,SACK1G (scaffolding CK1 anchoring protein G),SID135625488

6 entries from above, ordered by “viability robust z-score”, descending:
viability hit class,caspase hit class,viability robust z-score,caspase robust z-score,gene symbol,PubChem SID
no change,no change,1.55,0.16,HSD17B1 (hydroxysteroid 17-beta dehydrogenase 1),SID152151812
no change,no change,0.81,-0.6,DSG3 (desmoglein 3),SID152152691
no change,no change,0.04,-0.48,LRP10 (LDL receptor related protein 10),SID152153787
no change,no change,-0.18,-0.96,RNF126 (ring finger protein 126),SID152154874
no change,no change,-0.55,0.64,USP37 (ubiquitin specific peptidase 37),SID134311506
no change,no change,-0.72,0.6,CCDC93 (CCC complex scaffolding subunit CCDC93),SID152148988
